At least one compound was matched to its structure with a doubt left.
What was measured:
chronic GVHD = assay: Murine model of cutaneous chronic GVHD (B10.D2 into Balb/c); type: in vivo, mouse; conditions: prophylactic treatment
P815-luc+ cells = assay: Mouse bone marrow transplantation: graft-versus-leukemia effects by bioluminescence imaging; type: in vivo; conditions: KRP203 treatment alone
S1PR1 versus S1PR3-5 = conditions: cited from earlier work

For `NC(CO)(CO)CCc1ccc(Sc2cccc(OCc3ccccc3)c2)cc1Cl` [KRP203, 2-amino-2-[4-(3-benzyloxyphenylthio)-2-chlorophenyl] ethyl-propane-1,3-diol], the “clinical pathology and survival” value (chronic GVHD) is given as “reduced clinical pathology and improved survival”, the leukemia death (P815-luc+ cells) is given as “no leukemia death recorded” and the S1P receptor selectivity (S1PR1 versus S1PR3-5) is given as “acts specifically on S1PR1”.

Reference: patent publication US20230130403A1, “METHODS OF TREATMENT WITH S1P RECEPTOR MODULATORS” (PRIOTHERA SAS, priority 2021, published 2023)
